Experimental data: PubChem BioAssay AID1259254 (NCATS, 2017)

- Screen: 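Gene knock-downs that lead to re-replication, shown by excess G2 DNA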 (primary screen)
- System: human HCT116 colorectal cancer cells
- Knock-down reagent: single siRNA against human genes
- Timing: 3 days
- Read-out: 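Imaged Hoechst DNA stain sorts each cell into a cycle phase by DNA amount; per plate, G2 fraction set to 0% for non-targeting and 100% for GMNN siRNA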
- Scale: G2 robust z-score: higher = more G2 cells, more excess DNA replication
- Active means: 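Active siRNAs have a G2 robust z of 5 or more median absolute deviations over the median, which in these data means about 38% or higher of GMNN control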
The deposit covers about 59,000 reagents; this is a part drawn at random. In the full data, about 1,550 (2.6%) are marked active. 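G2 share is only a proxy for re-replication; each gene was hit by three separate siRNAs, and active genes were retested.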 Reagents against one gene are numbered here. Not all columns of the deposit are shown. Not given: the amount of reagent.

SLC11A1 (GeneID 6556) #1
- G2 robust z-score: -1.11
- call: inactive

SLC11A1 (GeneID 6556) #2
- G2 robust z-score: -0.66
- call: inactive

SLC11A1 (GeneID 6556) #3
- G2 robust z-score: 1.8
- call: inactive

FIRRM (GeneID 55732) #1
- G2 robust z-score: 0.207
- call: inactive

FIRRM (GeneID 55732) #2
- G2 robust z-score: 2.94
- call: inactive

FIRRM (GeneID 55732) #3
- G2 robust z-score: 0.478
- call: inactive

AMER2 (GeneID 219287) #1
- G2 robust z-score: 1.11
- call: inactive

AMER2 (GeneID 219287) #2
- G2 robust z-score: -0.409
- call: inactive

AMER2 (GeneID 219287) #3
- G2 robust z-score: 0.508
- call: inactive

SLC9D1 (GeneID 55002) #1
- G2 robust z-score: -0.839
- call: inactive

SLC9D1 (GeneID 55002) #2
- G2 robust z-score: -0.394
- call: inactive

SLC9D1 (GeneID 55002) #3
- G2 robust z-score: 2.54
- call: inactive

TIPE3 (GeneID 388121) #1
- G2 robust z-score: -0.127
- call: inactive

TIPE3 (GeneID 388121) #2
- G2 robust z-score: 0.606
- call: inactive

TIPE3 (GeneID 388121) #3
- G2 robust z-score: 0.141
- call: inactive

TDRD7 (GeneID 23424) #1
- G2 robust z-score: -1.02
- call: inactive

TDRD7 (GeneID 23424) #2
- G2 robust z-score: 7.65
- call: active

TDRD7 (GeneID 23424) #3
- G2 robust z-score: -0.00861
- call: inactive

TRIM74 (GeneID 378108) #1
- G2 robust z-score: -0.654
- call: inactive

TRIM74 (GeneID 378108) #2
- G2 robust z-score: -0.159
- call: inactive

TRIM74 (GeneID 378108) #3
- G2 robust z-score: 0.478
- call: inactive

CENPP (GeneID 401541) #1
- G2 robust z-score: -0.735
- call: inactive

CENPP (GeneID 401541) #2
- G2 robust z-score: 0.0584
- call: inactive

CENPP (GeneID 401541) #3
- G2 robust z-score: -0.41
- call: inactive

Reprinted from the entries so far, 3 entries:
CENPP (GeneID 401541) #1
- G2 robust z-score: -0.735
- call: inactive

CENPP (GeneID 401541) #2
- G2 robust z-score: 0.0584
- call: inactive

CENPP (GeneID 401541) #3
- G2 robust z-score: -0.41
- call: inactive
